According to article PMC5855860:
No constants are given. Whether binding was seen depends on the method and setting. Where a sequence is shown, tags or fusion partners need not be part of it.

Protein sequences, listed by entry. Tags and fused reporters are not part of them.
UniProt P0A3V6: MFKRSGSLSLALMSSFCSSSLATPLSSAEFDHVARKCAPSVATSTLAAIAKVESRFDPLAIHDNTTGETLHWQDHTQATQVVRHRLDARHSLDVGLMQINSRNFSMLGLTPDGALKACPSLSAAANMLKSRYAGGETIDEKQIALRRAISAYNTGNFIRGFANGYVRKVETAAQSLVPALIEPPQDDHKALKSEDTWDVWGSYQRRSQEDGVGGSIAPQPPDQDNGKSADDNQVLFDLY
UniProt P0A3W2: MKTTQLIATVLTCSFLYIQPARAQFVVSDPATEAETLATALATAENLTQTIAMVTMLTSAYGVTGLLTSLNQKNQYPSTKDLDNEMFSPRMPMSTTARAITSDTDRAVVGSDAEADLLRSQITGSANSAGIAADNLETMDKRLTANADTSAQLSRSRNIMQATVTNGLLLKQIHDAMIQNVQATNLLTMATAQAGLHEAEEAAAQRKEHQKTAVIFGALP
UniProt P07543: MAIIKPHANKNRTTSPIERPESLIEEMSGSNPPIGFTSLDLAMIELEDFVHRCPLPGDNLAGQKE

Tests used:
Experiment in all cases: two-hybrid; LexA bait fusions (pSST91) and GAL4 activation domain prey fusions (pGAD424) in yeast CTY10-5d, 30 °C; colony colour on SD medium with X-Gal lacking leucine and tryptophan; the same strains also in liquid ONPG β-galactosidase assays
[1] = target: VirB1, yeast two-hybrid fusion (Agrobacterium tumefaciens) (UniProt P0A3V6)
[2] = target: VirB5, yeast two-hybrid fusion (Agrobacterium tumefaciens) (UniProt P0A3W2)
[3] = target: T1, VirD2, yeast two-hybrid fusion (Agrobacterium tumefaciens) (UniProt P06668)
T1 sequence: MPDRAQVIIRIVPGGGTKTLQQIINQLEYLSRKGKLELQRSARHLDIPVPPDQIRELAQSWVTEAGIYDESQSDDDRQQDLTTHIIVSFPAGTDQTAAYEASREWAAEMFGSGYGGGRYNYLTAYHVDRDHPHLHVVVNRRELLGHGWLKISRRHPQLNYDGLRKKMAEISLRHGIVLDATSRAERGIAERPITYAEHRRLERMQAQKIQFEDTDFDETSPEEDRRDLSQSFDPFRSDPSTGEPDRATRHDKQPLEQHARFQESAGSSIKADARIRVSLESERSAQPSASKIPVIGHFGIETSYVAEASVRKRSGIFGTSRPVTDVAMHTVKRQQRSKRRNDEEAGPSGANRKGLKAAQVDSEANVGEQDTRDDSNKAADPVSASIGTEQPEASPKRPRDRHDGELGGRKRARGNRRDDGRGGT

[4] = target: VirE1, yeast two-hybrid fusion (Agrobacterium tumefaciens) (UniProt P07543)
[5] = target: T2, VirF, yeast two-hybrid fusion (Agrobacterium tumefaciens) (UniProt P15597)
T2 sequence: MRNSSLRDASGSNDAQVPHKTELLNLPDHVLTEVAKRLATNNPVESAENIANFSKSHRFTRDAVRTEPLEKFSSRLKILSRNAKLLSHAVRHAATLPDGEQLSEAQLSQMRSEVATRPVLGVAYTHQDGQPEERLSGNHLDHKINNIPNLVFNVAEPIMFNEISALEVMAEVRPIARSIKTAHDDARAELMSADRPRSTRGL

[6] = target: T3, RTNLB5, yeast two-hybrid fusion (Arabidopsis thaliana) (UniProt O82352)
T3 sequence: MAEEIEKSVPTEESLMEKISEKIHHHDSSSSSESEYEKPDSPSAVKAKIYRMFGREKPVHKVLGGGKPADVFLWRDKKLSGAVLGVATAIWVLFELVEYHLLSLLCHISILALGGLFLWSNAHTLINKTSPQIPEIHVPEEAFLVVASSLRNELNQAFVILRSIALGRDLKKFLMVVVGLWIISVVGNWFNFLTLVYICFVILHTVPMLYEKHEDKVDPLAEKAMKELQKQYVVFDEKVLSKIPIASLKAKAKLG

[7] = target: T4, RTNLB7, yeast two-hybrid fusion (Arabidopsis thaliana) (UniProt Q9M145)
T4 sequence: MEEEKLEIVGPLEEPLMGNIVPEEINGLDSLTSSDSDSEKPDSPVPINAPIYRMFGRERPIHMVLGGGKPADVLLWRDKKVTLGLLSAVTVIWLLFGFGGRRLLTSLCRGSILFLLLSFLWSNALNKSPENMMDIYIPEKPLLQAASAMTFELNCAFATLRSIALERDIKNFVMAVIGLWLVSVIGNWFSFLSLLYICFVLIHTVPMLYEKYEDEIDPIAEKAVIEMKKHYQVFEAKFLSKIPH

[8] = target: T5, RTNLB8, yeast two-hybrid fusion (Arabidopsis thaliana) (UniProt Q9SS37)
T5 sequence: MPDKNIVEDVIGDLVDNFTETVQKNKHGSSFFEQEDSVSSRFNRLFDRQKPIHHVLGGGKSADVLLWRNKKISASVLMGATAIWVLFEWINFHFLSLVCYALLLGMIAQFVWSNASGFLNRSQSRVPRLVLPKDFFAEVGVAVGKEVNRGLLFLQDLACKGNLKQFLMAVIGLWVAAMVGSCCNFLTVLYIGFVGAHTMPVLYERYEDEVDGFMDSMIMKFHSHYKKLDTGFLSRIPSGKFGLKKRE

[9] = target: T6, reticulon-like protein B1 (RTNLB1), yeast two-hybrid fusion (Arabidopsis thaliana) (UniProt Q9SUR3)
T6 sequence: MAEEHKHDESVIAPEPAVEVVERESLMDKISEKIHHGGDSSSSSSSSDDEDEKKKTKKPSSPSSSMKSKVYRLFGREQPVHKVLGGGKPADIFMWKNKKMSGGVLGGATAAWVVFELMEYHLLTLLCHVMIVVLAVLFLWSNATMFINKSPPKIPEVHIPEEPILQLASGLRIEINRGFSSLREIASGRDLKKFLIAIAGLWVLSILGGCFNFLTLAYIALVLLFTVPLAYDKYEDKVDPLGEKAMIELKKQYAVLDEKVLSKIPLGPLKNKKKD

[10] = target: T7, reticulon-like protein B2 (RTNLB2), yeast two-hybrid fusion (Arabidopsis thaliana) (UniProt Q9SUT9)
T7 sequence: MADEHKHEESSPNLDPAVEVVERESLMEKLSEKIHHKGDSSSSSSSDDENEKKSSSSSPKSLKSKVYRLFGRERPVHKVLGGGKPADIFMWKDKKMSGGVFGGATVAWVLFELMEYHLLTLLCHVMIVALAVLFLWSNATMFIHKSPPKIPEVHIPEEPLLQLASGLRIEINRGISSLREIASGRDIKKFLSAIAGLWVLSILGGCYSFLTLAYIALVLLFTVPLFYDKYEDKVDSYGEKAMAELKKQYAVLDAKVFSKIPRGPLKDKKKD

[11] = target: T8, reticulon-like protein B4 (RTNLB4), yeast two-hybrid fusion (Arabidopsis thaliana) (UniProt Q9FFS0)
T8 sequence: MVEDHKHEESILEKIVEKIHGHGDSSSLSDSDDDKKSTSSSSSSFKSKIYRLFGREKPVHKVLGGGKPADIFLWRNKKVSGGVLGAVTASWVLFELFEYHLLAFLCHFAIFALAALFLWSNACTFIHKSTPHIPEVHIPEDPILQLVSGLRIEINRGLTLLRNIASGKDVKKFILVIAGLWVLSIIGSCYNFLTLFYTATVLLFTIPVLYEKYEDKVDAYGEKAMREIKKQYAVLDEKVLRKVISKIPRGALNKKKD

[12] = target: T9, RTNLB6, yeast two-hybrid fusion (Arabidopsis thaliana) (UniProt Q6DBN4)
T9 sequence: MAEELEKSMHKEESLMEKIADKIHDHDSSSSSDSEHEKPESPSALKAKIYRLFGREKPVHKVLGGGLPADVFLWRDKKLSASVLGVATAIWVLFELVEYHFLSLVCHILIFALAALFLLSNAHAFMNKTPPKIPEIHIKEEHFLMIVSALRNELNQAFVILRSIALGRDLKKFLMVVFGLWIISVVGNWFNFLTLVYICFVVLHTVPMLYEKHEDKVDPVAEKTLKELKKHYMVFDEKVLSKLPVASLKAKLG

Measured: binding

RTNLB7, yeast two-hybrid fusion (from UniProt Q9M145 1-244)
no binding: [1] | [2] | [3] | [4] | [5]

RTNLB5, yeast two-hybrid fusion (from UniProt O82352 1-255)
no binding: [1] | [2] | [3] | [4] | [5]

B1: RTNLB6, yeast two-hybrid fusion (protein, UniProt Q6DBN4 1-253)
chain: MAEELEKSMHKEESLMEKIADKIHDHDSSSSSDSEHEKPESPSALKAKIYRLFGREKPVHKVLGGGLPADVFLWRDKKLSASVLGVATAIWVLFELVEYHFLSLVCHILIFALAALFLLSNAHAFMNKTPPKIPEIHIKEEHFLMIVSALRNELNQAFVILRSIALGRDLKKFLMVVFGLWIISVVGNWFNFLTLVYICFVVLHTVPMLYEKHEDKVDPVAEKTLKELKKHYMVFDEKVLSKLPVASLKAKLG
not listed: [12]
no binding: all other assays above

B2: RTNLB8, yeast two-hybrid fusion (protein, UniProt Q9SS37 1-247)
chain: MPDKNIVEDVIGDLVDNFTETVQKNKHGSSFFEQEDSVSSRFNRLFDRQKPIHHVLGGGKSADVLLWRNKKISASVLMGATAIWVLFEWINFHFLSLVCYALLLGMIAQFVWSNASGFLNRSQSRVPRLVLPKDFFAEVGVAVGKEVNRGLLFLQDLACKGNLKQFLMAVIGLWVAAMVGSCCNFLTVLYIGFVGAHTMPVLYERYEDEVDGFMDSMIMKFHSHYKKLDTGFLSRIPSGKFGLKKRE
not listed: [10] | [11]
no binding: all other assays above

B3: RETICULON-LIKE3 (RTNLB3), yeast two-hybrid fusion (protein, UniProt Q9SH59 1-255)
chain: MAEEHKHEESIMEKISEKIHGHDDSSSSSSDSDDDKNSASLKTKIYRLFGREQPLHKLFGGGKPADIFLWRNKKVSGGVLGAATVSWILFELLEYNLLTLFGHISILALAVLFLWSSASTFIHKSPLHIPEVHIPEDVVLQLASGLRIEINRGFTVLRDIASGRDLKKFLLVIAGLWVLSKVGSSCNFLTLIYIATVLLFTIPVLYEKYEDKVDDFGEKAMREIKKQYVEFDVKVLSKVMSKIPKGAFAFIKKKD
no binding: [6] | [7] | [1] | [2] | [3] | [4] | [5]
